Data reported in the supplement of paper PMC10060354, “Discovery of a small molecule ligand of FRS2 that inhibits invasion and tumor growth” (Cellular Oncology, 2022).
Single values are uncertain, as repeats are few or missing.

Chains of the proteins cited; added tags and fusions are not shown. Lines headed by an entry give the natural chain unless they say otherwise; changes in a name come on top.
UniProt Q96EQ0: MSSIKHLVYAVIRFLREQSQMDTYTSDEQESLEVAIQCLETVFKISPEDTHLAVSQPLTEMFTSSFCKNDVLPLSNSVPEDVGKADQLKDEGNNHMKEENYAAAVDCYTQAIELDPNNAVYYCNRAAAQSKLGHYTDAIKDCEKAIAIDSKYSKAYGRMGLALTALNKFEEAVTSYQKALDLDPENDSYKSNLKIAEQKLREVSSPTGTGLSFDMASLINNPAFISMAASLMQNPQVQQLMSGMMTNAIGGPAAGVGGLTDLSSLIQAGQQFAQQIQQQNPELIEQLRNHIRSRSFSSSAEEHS
UniProt Q9BY77: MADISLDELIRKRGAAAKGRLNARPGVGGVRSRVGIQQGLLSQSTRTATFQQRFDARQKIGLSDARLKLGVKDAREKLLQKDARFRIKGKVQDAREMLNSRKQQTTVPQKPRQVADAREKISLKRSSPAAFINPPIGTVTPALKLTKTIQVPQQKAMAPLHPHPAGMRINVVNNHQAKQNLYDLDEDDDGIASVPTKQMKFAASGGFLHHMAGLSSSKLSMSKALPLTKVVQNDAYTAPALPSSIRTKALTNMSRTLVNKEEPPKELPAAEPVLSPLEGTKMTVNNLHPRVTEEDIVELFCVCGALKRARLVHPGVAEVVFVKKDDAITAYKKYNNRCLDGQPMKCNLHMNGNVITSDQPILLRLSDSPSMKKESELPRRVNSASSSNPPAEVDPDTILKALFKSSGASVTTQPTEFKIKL
UniProt O60701: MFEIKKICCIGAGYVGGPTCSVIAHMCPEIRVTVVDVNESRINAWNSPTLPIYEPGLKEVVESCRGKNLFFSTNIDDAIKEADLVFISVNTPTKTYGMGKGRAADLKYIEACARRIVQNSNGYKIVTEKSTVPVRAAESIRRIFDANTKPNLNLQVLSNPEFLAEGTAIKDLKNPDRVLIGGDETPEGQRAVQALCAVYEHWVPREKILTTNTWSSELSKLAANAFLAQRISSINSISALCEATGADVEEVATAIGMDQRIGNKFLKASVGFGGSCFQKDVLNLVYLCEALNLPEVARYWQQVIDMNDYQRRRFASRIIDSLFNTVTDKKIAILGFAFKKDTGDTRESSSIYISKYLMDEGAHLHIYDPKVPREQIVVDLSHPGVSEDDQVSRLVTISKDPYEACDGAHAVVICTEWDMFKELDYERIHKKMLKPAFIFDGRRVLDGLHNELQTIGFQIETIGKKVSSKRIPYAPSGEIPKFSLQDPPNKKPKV
UniProt Q15363: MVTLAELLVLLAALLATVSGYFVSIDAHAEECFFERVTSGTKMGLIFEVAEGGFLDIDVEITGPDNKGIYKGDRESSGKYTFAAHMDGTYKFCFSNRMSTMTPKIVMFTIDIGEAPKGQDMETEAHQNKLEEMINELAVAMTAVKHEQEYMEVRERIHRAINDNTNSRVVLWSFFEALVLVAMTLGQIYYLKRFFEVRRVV
UniProt Q9UKM7: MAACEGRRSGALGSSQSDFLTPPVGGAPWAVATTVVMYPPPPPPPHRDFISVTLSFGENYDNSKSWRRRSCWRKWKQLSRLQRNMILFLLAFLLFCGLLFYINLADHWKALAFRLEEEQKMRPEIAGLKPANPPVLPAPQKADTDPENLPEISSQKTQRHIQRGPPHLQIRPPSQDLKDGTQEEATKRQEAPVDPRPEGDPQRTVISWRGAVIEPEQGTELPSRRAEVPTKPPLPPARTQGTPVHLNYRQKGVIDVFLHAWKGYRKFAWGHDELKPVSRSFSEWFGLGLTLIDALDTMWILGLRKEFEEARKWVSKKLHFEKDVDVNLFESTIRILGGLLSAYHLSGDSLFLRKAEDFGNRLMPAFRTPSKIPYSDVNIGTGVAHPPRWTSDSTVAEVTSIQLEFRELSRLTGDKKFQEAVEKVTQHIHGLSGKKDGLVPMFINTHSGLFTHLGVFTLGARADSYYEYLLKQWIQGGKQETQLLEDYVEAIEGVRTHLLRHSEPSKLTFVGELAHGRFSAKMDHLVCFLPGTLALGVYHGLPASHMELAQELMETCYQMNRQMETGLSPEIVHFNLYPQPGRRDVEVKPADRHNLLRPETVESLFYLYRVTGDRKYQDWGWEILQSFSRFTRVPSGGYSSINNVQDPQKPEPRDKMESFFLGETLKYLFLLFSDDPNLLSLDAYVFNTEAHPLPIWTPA
UniProt O15479: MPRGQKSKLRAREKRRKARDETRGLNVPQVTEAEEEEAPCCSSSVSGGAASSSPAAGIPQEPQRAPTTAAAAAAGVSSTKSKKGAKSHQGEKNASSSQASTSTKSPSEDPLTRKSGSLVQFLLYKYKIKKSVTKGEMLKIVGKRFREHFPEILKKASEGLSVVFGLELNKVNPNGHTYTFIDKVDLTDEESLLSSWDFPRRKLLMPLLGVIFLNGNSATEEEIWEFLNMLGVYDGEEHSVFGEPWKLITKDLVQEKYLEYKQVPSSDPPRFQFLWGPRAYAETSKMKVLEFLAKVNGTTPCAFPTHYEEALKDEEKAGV
UniProt O14734: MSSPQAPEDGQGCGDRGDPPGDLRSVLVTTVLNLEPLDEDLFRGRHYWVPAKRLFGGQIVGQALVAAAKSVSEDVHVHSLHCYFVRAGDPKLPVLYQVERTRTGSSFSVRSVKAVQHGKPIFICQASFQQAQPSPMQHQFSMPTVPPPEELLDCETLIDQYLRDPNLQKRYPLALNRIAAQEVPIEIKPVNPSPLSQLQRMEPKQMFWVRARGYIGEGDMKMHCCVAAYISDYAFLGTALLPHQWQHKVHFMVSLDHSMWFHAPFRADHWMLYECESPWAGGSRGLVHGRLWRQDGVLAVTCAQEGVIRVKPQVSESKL
UniProt P46736, whole entry: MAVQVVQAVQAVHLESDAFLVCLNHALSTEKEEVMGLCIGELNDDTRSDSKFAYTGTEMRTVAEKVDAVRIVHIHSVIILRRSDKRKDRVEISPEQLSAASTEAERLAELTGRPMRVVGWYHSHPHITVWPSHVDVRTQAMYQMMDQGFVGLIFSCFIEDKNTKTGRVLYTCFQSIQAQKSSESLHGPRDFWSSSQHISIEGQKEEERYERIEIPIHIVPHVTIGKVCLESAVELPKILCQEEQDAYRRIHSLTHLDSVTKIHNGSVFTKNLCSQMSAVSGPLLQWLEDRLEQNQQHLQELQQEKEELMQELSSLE
UniProt B3EWG3: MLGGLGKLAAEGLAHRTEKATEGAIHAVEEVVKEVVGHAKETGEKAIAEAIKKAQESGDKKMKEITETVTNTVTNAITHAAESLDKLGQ
UniProt O43390: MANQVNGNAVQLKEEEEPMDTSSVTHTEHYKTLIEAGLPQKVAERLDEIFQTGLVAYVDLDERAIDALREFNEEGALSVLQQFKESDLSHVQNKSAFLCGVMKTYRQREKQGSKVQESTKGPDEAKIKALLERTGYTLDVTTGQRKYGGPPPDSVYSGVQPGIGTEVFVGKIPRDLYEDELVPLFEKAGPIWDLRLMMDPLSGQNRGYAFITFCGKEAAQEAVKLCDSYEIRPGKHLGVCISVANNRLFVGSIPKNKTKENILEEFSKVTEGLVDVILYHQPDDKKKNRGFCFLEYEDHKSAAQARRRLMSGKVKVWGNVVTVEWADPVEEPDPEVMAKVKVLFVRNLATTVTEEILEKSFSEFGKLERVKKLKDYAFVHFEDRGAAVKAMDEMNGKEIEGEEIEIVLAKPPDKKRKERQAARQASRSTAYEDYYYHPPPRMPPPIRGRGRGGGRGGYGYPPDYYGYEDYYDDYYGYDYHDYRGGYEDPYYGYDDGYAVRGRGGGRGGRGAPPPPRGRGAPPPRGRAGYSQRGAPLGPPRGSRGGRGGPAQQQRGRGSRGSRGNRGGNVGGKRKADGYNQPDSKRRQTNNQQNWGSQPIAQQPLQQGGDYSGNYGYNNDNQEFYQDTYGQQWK
UniProt Q6YN16: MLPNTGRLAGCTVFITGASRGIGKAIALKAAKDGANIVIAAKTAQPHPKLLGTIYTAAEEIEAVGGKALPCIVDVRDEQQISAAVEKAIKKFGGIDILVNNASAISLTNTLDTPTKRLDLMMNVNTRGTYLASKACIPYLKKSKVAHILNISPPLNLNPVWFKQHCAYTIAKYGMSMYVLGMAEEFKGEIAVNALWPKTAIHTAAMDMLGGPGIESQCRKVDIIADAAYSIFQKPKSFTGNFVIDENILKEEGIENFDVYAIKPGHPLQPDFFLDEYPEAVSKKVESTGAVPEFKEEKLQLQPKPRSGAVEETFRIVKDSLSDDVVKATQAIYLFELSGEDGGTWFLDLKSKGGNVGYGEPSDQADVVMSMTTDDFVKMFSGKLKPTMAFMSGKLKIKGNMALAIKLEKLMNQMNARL
UniProt Q5VT79: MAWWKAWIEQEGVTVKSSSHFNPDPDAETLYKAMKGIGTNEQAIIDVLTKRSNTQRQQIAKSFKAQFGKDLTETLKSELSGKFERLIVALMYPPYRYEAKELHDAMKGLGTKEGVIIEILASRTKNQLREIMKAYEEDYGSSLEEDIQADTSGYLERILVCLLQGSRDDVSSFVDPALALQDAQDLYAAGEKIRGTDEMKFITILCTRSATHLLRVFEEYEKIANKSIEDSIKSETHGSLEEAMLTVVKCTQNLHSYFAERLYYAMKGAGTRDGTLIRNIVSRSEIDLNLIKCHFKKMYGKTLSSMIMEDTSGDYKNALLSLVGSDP
UniProt Q14520: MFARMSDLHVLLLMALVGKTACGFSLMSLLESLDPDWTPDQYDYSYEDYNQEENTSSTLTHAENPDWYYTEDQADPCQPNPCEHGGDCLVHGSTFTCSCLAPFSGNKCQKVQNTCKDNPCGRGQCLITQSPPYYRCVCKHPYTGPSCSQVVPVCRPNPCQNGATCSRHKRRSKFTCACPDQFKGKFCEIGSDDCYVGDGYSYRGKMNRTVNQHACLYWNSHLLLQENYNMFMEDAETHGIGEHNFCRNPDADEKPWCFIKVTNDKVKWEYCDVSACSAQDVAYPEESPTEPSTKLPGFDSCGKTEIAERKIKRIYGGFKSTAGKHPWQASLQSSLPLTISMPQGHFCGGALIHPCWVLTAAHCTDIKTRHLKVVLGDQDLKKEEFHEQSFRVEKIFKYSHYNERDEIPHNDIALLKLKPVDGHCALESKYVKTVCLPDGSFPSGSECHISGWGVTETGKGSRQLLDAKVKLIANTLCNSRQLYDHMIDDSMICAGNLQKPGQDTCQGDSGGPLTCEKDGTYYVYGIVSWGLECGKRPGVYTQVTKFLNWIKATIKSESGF
UniProt P62995: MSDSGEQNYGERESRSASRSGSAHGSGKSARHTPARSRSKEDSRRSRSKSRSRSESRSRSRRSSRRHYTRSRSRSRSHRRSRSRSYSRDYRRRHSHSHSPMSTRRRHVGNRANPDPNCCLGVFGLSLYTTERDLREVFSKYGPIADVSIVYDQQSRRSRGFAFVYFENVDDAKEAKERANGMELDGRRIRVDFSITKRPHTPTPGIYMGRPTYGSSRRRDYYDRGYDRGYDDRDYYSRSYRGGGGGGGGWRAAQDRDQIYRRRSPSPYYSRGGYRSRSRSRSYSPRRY
UniProt O94901, whole entry: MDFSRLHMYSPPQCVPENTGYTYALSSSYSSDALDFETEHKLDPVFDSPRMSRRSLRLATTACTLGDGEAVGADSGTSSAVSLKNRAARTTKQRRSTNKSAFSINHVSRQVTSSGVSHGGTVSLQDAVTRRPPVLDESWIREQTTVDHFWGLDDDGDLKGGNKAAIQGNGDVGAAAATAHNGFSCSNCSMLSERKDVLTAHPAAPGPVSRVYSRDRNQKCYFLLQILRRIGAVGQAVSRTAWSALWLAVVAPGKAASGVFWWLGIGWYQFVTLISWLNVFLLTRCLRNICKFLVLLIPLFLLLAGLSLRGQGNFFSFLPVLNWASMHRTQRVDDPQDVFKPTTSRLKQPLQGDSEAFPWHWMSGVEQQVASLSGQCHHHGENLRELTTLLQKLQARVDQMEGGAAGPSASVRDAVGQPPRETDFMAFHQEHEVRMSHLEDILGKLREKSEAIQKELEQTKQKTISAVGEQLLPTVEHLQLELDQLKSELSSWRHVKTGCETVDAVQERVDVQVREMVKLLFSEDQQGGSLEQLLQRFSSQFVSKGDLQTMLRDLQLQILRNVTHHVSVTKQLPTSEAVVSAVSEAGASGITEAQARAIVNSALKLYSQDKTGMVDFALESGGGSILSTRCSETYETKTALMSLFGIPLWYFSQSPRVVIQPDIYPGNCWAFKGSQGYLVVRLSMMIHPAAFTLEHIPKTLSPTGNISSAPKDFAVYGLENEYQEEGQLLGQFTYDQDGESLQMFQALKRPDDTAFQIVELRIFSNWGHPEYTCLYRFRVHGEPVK
UniProt Q9H0A8, whole entry: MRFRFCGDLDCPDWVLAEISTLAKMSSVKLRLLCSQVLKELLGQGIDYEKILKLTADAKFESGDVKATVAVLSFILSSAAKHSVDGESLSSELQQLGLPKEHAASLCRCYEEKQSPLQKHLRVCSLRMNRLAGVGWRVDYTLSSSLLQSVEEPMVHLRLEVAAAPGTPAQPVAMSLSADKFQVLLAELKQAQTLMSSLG
UniProt P25208: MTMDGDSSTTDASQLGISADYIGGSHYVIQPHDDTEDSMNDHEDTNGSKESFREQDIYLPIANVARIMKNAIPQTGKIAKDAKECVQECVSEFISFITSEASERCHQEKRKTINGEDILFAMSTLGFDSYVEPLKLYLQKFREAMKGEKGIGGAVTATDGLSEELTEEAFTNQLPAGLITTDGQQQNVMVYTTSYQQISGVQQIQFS

Compound: [O-][N+](C(C1=C(C(O)=C2)NC(C(C=C3)=CC=C3Cl)C4C1C=CC4)=C2Cl)=O
Experiment: melting temperature shift (compound 7 minus DMSO); higher = compound stabilises the protein
Settings: 10 µM
Procedure: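 Thermal proteome profiling (TMT mass spectrometry) in intact DAOY medulloblastoma cells or DAOY lysates treated with 10 µM compound 7 or DMSO, heated at 10 temperatures from 40.5 to 73.8 °C for 3 min. Melting curves were fitted with the Bioconductor TPP package, and the melting point difference between compound and vehicle is reported per protein (single curve per condition).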

[1] = system: DAOY cell lysate, treatment time: 20 min, 4 °C
[2] = system: intact DAOY cells, treatment time: 90 min, 37 °C

UniProt Q93062
melting temperature shift [1]: -0.291 °C | melting temperature shift [2]: 4.84 °C

NXF1 (UniProt Q9UBU9)
melting temperature shift [1]: 0.186 °C | melting temperature shift [2]: 1.73 °C

NDUFA4 (UniProt O00483)
melting temperature shift [1]: 2.98 °C | melting temperature shift [2]: -0.769 °C

SLC19A1 (UniProt P41440)
melting temperature shift [1]: 5.64 °C | melting temperature shift [2]: -0.655 °C

UniProt O43294
melting temperature shift [1]: -0.942 °C

LDAH (UniProt Q9H6V9)
melting temperature shift [1]: 3.86 °C | melting temperature shift [2]: -0.852 °C

RIC8A (UniProt Q9NPQ8)
melting temperature shift [1]: -0.193 °C | melting temperature shift [2]: -0.721 °C

NEDD1 (UniProt Q8NHV4)
melting temperature shift [1]: -1.49 °C | melting temperature shift [2]: 0.237 °C

UniProt Q9H9G7
melting temperature shift [1]: 1.06 °C | melting temperature shift [2]: 0.499 °C

CKMT1A (UniProt P12532)
melting temperature shift [1]: 0.122 °C | melting temperature shift [2]: 0.142 °C

NUP85 (UniProt Q9BW27)
melting temperature shift [1]: -0.278 °C | melting temperature shift [2]: 2.79 °C

UniProt Q15052
melting temperature shift [2]: -2.52 °C

RANBP9 (UniProt Q96S59)
melting temperature shift [1]: -0.0989 °C | melting temperature shift [2]: -0.637 °C

UniProt O15111
melting temperature shift [1]: -1.48 °C | melting temperature shift [2]: -0.332 °C

GTF3C4 (UniProt Q9UKN8)
melting temperature shift [1]: -0.0289 °C | melting temperature shift [2]: 0.586 °C

GDI2 (UniProt P50395)
melting temperature shift [1]: -0.48 °C | melting temperature shift [2]: 0.375 °C

UCHL5 (UniProt Q9Y5K5)
melting temperature shift [1]: -0.585 °C | melting temperature shift [2]: 0.0429 °C

SGTB (UniProt Q96EQ0)
melting temperature shift [1]: -1.43 °C | melting temperature shift [2]: -1.01 °C

FAM107B (UniProt Q9H098)
melting temperature shift [1]: -2.59 °C

UniProt A2RU37
melting temperature shift [1]: 3.14 °C

KIN (UniProt O60870)
melting temperature shift [1]: -0.144 °C | melting temperature shift [2]: 0.889 °C

UBXN8 (UniProt O00124)
melting temperature shift [2]: -1.64 °C

PPP2R5E (UniProt Q16537)
melting temperature shift [2]: -0.388 °C

POLDIP3 (UniProt Q9BY77)
melting temperature shift [1]: 1.1 °C | melting temperature shift [2]: 2.27 °C

UniProt Q96KC2
melting temperature shift [2]: -2.05 °C

MRPL42 (UniProt Q9Y6G3)
melting temperature shift [1]: 1.85 °C | melting temperature shift [2]: 0.654 °C

MRPL19 (UniProt P49406)
melting temperature shift [1]: -0.717 °C | melting temperature shift [2]: -1 °C

UniProt Q8TF09
melting temperature shift [2]: -1.51 °C

RSRC2 (UniProt Q7L4I2)
melting temperature shift [1]: -0.572 °C

RNPEP (UniProt Q9H4A4)
melting temperature shift [1]: -0.432 °C | melting temperature shift [2]: 0.17 °C

UniProt Q9NRP0
melting temperature shift [1]: 2.51 °C | melting temperature shift [2]: -0.292 °C

SNX2 (UniProt O60749)
melting temperature shift [1]: -1.04 °C | melting temperature shift [2]: -1.44 °C

LMO7 (UniProt Q8WWI1)
melting temperature shift [1]: 1.06 °C | melting temperature shift [2]: -0.419 °C

SMIM12 (UniProt Q96EX1)
melting temperature shift [1]: 3.03 °C | melting temperature shift [2]: -1.6 °C

EIF3K (UniProt Q9UBQ5)
melting temperature shift [1]: -0.275 °C | melting temperature shift [2]: 0.681 °C

UGDH (UniProt O60701)
melting temperature shift [1]: -0.36 °C | melting temperature shift [2]: -0.524 °C

TMED2 (UniProt Q15363)
melting temperature shift [1]: 0.413 °C | melting temperature shift [2]: -1.29 °C

ALAS1 (UniProt P13196)
melting temperature shift [2]: -0.739 °C

GPATCH11 (UniProt Q8N954)
melting temperature shift [1]: -1.16 °C | melting temperature shift [2]: 0.853 °C

OBSL1 (UniProt O75147)
melting temperature shift [1]: 0.56 °C

PSMA5 (UniProt P28066)
melting temperature shift [1]: 0.56 °C | melting temperature shift [2]: 0.447 °C

CXADR (UniProt P78310)
melting temperature shift [1]: -3.36 °C

UniProt Q99732
melting temperature shift [1]: 1.8 °C

MAP4K4 (UniProt O95819)
melting temperature shift [1]: -0.099 °C | melting temperature shift [2]: -0.368 °C

MAN1B1 (UniProt Q9UKM7)
melting temperature shift [1]: -0.378 °C | melting temperature shift [2]: -1.44 °C

AGL (UniProt P35573)
melting temperature shift [1]: 0.0414 °C | melting temperature shift [2]: -0.0942 °C

PYGL (UniProt P06737)
melting temperature shift [1]: -0.423 °C | melting temperature shift [2]: 0.205 °C

TPRKB (UniProt Q9Y3C4)
melting temperature shift [1]: -0.181 °C | melting temperature shift [2]: 0.342 °C

GGA2 (UniProt Q9UJY4)
melting temperature shift [1]: -0.529 °C

UniProt O15479
melting temperature shift [1]: 0.926 °C | melting temperature shift [2]: -0.0436 °C

ACOT8 (UniProt O14734)
melting temperature shift [1]: 1.96 °C | melting temperature shift [2]: 0.13 °C

STT3B (UniProt Q8TCJ2)
melting temperature shift [1]: 1.72 °C | melting temperature shift [2]: -0.16 °C

BRCC3 (UniProt P46736)
melting temperature shift [1]: -0.595 °C | melting temperature shift [2]: -2.54 °C

ZDHHC5 (UniProt Q9C0B5)
melting temperature shift [2]: -2.56 °C

UniProt Q96I45
melting temperature shift [1]: 3.14 °C

C5ORF22 (UniProt Q49AR2)
melting temperature shift [1]: -0.573 °C | melting temperature shift [2]: 0.983 °C

UEVLD (UniProt Q8IX04)
melting temperature shift [1]: -0.132 °C | melting temperature shift [2]: -0.398 °C

NCOR2 (UniProt Q9Y618)
melting temperature shift [1]: -0.441 °C | melting temperature shift [2]: -0.865 °C

PPM1H (UniProt Q9ULR3)
melting temperature shift [2]: -0.13 °C

B3EWG6 (UniProt B3EWG3)
melting temperature shift [1]: -3.53 °C | melting temperature shift [2]: 2.12 °C

HNRNPR (UniProt O43390)
melting temperature shift [1]: 0.664 °C | melting temperature shift [2]: -0.577 °C

CD59 (UniProt P13987)
melting temperature shift [1]: 2.57 °C

HSF1 (UniProt Q00613)
melting temperature shift [1]: -0.897 °C

EEA1 (UniProt Q15075)
melting temperature shift [1]: -1.18 °C

UniProt Q9Y5E7
melting temperature shift [1]: -1.07 °C

LSM5 (UniProt Q9Y4Y9)
melting temperature shift [1]: -1.24 °C | melting temperature shift [2]: 0.537 °C

HSDL2 (UniProt Q6YN16)
melting temperature shift [1]: 0.471 °C | melting temperature shift [2]: -0.397 °C

GPATCH2 (UniProt Q9NW75)
melting temperature shift [1]: -3.5 °C | melting temperature shift [2]: -0.341 °C

NDE1 (UniProt Q9NXR1)
melting temperature shift [1]: -0.392 °C | melting temperature shift [2]: 1.2 °C

ANXA8L1 (UniProt Q5VT79)
melting temperature shift [1]: -0.438 °C | melting temperature shift [2]: -0.468 °C

NADK2 (UniProt Q4G0N4)
melting temperature shift [1]: -0.507 °C | melting temperature shift [2]: -0.504 °C

WDR73 (UniProt Q6P4I2)
melting temperature shift [2]: -0.208 °C

UniProt Q14520
melting temperature shift [1]: -1.01 °C | melting temperature shift [2]: 0.0417 °C

UniProt P09211
melting temperature shift [1]: -0.243 °C | melting temperature shift [2]: -0.341 °C

TRA2B (UniProt P62995)
melting temperature shift [1]: 0.962 °C | melting temperature shift [2]: 0.844 °C

ACTR1B (UniProt P42025)
melting temperature shift [1]: -0.474 °C | melting temperature shift [2]: -0.39 °C

UniProt Q9Y5J7
melting temperature shift [1]: 1.3 °C | melting temperature shift [2]: -0.166 °C

HEATR1 (UniProt Q9H583)
melting temperature shift [1]: 0.211 °C | melting temperature shift [2]: 0.388 °C

AP1B1 (UniProt Q10567)
melting temperature shift [1]: -0.301 °C | melting temperature shift [2]: 0.925 °C

DIAPH3 (UniProt Q9NSV4)
melting temperature shift [1]: -2.3 °C

UniProt Q8IVG5
melting temperature shift [2]: 0.118 °C

GSN (UniProt P06396)
melting temperature shift [1]: 0.14 °C | melting temperature shift [2]: -0.0184 °C

UniProt Q96Q89
melting temperature shift [1]: 1.33 °C

UniProt O94901
melting temperature shift [1]: 1.58 °C

COMMD4 (UniProt Q9H0A8)
melting temperature shift [1]: -0.475 °C | melting temperature shift [2]: -0.182 °C

NFYB (UniProt P25208)
melting temperature shift [1]: 1.93 °C | melting temperature shift [2]: -2.46 °C

SUCLG2 (UniProt Q96I99)
melting temperature shift [1]: 0.22 °C | melting temperature shift [2]: -1.86 °C

NDUFV1 (UniProt P49821)
melting temperature shift [1]: 0.806 °C | melting temperature shift [2]: -0.796 °C

TMEM65 (UniProt Q6PI78)
melting temperature shift [1]: 0.483 °C | melting temperature shift [2]: 0.191 °C

A0A1B0GTU1, A0A1B0GTU1
melting temperature shift [2]: -4.65 °C
